Laboratory results taken from patent publication US20050186665A1.
Results are given in words; binding and its absence hold for the method and conditions named. Some results given as binding are weak or reduced against the parent protein; the word gives no strength.

Sequences of proteins named here, by UniProt entry; tags and fusion partners are left off. A change or cut given only in a name is not applied to a line headed by its entry. Residues count along the entry.
UniProt O08538, residues 20-498: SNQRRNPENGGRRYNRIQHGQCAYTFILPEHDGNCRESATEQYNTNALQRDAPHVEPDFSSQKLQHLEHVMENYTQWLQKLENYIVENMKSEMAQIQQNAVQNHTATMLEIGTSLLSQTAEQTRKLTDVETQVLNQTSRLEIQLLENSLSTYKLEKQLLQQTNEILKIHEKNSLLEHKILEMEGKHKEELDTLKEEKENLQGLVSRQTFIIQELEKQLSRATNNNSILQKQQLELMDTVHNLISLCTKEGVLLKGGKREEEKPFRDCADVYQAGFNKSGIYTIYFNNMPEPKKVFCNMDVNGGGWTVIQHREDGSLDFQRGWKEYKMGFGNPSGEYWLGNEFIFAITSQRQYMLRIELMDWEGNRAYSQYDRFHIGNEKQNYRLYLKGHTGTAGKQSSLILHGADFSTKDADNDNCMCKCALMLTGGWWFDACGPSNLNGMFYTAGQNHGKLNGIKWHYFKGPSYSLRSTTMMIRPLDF
UniProt O15123: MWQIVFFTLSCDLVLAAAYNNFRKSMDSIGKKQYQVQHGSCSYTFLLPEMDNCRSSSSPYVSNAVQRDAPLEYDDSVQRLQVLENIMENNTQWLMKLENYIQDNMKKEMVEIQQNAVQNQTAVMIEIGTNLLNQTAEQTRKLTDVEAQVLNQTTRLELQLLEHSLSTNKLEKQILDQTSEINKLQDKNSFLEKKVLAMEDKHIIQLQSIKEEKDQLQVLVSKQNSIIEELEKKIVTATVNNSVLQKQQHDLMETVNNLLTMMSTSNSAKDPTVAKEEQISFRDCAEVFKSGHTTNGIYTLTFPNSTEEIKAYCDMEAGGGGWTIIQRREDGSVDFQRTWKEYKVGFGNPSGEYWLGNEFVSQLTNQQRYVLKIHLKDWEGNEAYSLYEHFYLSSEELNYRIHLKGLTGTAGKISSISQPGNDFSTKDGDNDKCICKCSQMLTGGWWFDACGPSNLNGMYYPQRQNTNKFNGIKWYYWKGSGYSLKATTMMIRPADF

What was measured:
[1] = biological target: mouse TIE-2 ligand (clone from the C2C12 ras cDNA library, pJFE14 encoding TIE-2 ligand, ATCC 75910) (mouse) (UniProt O08538); assay: staining of fixed, permeabilized transfected COS-7 cells with TIE-2 RB, anti-human IgG-alkaline phosphatase
[2] = biological target: human TIE-2 ligand 2 (human) (UniProt O15123); assay: staining of permeabilized transfected COS cells with TIE-2 receptorbody, anti-human IgG-alkaline phosphatase

binding [1]: binds
binding [2]: binds
Substance: TIE-2 receptorbody (entire extracellular portion of the rat TIE-2 receptor fused to the human immunoglobulin gamma-1 constant region, IgG1 Fc) (from UniProt A0ABK0L6J5 19-740) (Fc fusion)
